Experimental data from publication PMC4885489, “Prediction of Drug-Drug Interactions Arising from CYP3A induction Using a Physiologically Based Dynamic Model” (Drug Metabolism and Disposition, 2016).
Like-named read-outs stand apart in the source and are kept apart here.

Legend:
rCYP3A4 [1] = conditions: human
CYP3A4 [2] = conditions: human, in vivo, cited from earlier work
CYP3A4 [3] = conditions: human, in vivo, cited from earlier work; remark: listed apart in the source
[4] = in vivo; cited from earlier work
rCYP3A4 [5] = conditions: cited from earlier work

For `COC(=O)C1=C(C)NC(C)=C(C(=O)OC)C1c1ccccc1[N+](=O)[O-]` [Nifedipine, nifedipine], the “rCYP3A4 Vmax” value (rCYP3A4 [1]) is given as 33.8 µL/min/pmol, the AUCi (CYP3A4 [2]; iv) is given as 26.7 (44.9) ng/mL.h and the AUC (CYP3A4 [2]; po, 20 mg) is given as 230 (14.7) ng/mL.h. For the same compound, the AUCi (CYP3A4 [2]; po) was 18.8 (45.7) ng/mL.h, the AUC (CYP3A4 [3]; 20 mg) was 0.343 (36.4) mg/L.h and the AUCi (CYP3A4 [3]) was 0.135 (57.8) mg/L.h. The “Vss (Minimal PBPK)” value [4] was 0.57 L/kg and the Km (rCYP3A4 [5]) was 11 µM.
